PubChem BioAssay AID1159578, Peter MacCallum Cancer Centre | 2015
Shown is an unselected part of about 18,000 reagents. About 1,030 of them (5.7%) count as active. 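Inactive calls also include pools with fewer than 3300 nuclei, whose migration was not assessed.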 Raw values are not corrected between plates. Not all columns of the deposit are shown. Reagent sequences are not shown.

Test: 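Knock-downs that alter how fast lymphatic endothelial cells migrate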 (primary screen)
Cell system: human lymphatic endothelial cells
Reagents: siRNA pool against human genes, 40 nM
Time to read-out: 48 h after transfection
Read-out: 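Cells stained with dye and imaged after a scratch; covered wound area and nuclei counted, duplicates averaged, migration set against mock wells and turned into a robust z-score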
Scale: migration robust z-score: higher = faster migration into the scratch; nuclei per well: higher = more cells in the well
Active means: 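Pools averaging fewer than 3300 nuclei are never called; remaining pools count as changed when migration robust z lies outside -2 to 2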
Calls: active = migration changed; inactive = no migration change, or too few cells

Against ACTL6A the deposit lists migration robust z-score -0.7; migration class with cell-count check migration z between -2 and 2; enough cells; nuclei per well, duplicate mean 4945; inactive. Knock-down of SLC15A4 came out at: migration robust z-score -0.73; migration class with cell-count check migration z between -2 and 2; enough cells; nuclei per well, duplicate mean 5675; inactive. LRRIQ1 gave migration robust z-score 1.21; migration class with cell-count check migration z between -2 and 2; enough cells; nuclei per well, duplicate mean 5818; inactive. Depletion of FIGNL2 came out at: migration robust z-score 0.31; migration class with cell-count check migration z between -2 and 2; enough cells; nuclei per well, duplicate mean 4362; inactive. After knock-down of SLC30A2, the screen gave migration robust z-score -1.53; migration class with cell-count check migration z between -2 and 2; enough cells; nuclei per well, duplicate mean 4827; inactive. Knock-down of SERPINF1 came out at: migration robust z-score 1.02; migration class with cell-count check migration z between -2 and 2; enough cells; nuclei per well, duplicate mean 4846; inactive.

Depletion of POU3F2 gave: migration robust z-score -0.83; migration class with cell-count check migration z between -2 and 2; enough cells; nuclei per well, duplicate mean 6264; inactive. With knock-down of RHOG, the record shows migration robust z-score -2.02; migration class with cell-count check migration z below -2; enough cells; nuclei per well, duplicate mean 5818; active. CD151 gave migration robust z-score 3.25; migration class with cell-count check migration z above 2; enough cells; nuclei per well, duplicate mean 7572; active. With knock-down of CDH7, the record shows migration robust z-score -1.38; migration class with cell-count check migration z between -2 and 2; enough cells; nuclei per well, duplicate mean 6214; inactive. ABCA9 showed migration robust z-score -0.7; migration class with cell-count check migration z between -2 and 2; enough cells; nuclei per well, duplicate mean 4891; inactive. After knock-down of CUL3 the results were migration robust z-score -2.18; migration class with cell-count check migration z below -2; enough cells; nuclei per well, duplicate mean 6086; active.

With knock-down of LRRC28 the results were migration robust z-score 1.18; migration class with cell-count check migration z between -2 and 2; enough cells; nuclei per well, duplicate mean 5247; inactive. After knock-down of AXIN1, the record shows migration robust z-score 2.75; migration class with cell-count check migration z above 2; enough cells; nuclei per well, duplicate mean 6197; active. After knock-down of TXNDC9 the results were migration robust z-score -1.47; migration class with cell-count check migration z between -2 and 2; enough cells; nuclei per well, duplicate mean 3804; inactive. For FBXO6, the entry reads migration robust z-score -1.79; migration class with cell-count check migration z between -2 and 2; enough cells; nuclei per well, duplicate mean 5417; inactive. For ADARB2, the entry reads migration robust z-score -0.54; migration class with cell-count check migration z between -2 and 2; enough cells; nuclei per well, duplicate mean 5626; inactive. MFSD8 showed migration robust z-score -1.31; migration class with cell-count check migration z between -2 and 2; enough cells; nuclei per well, duplicate mean 5889; inactive.

Silencing of PSG9 resulted in: migration robust z-score 1.01; migration class with cell-count check migration z between -2 and 2; enough cells; nuclei per well, duplicate mean 5964; inactive. Depletion of ANKH gave: migration robust z-score -0.34; migration class with cell-count check migration z between -2 and 2; enough cells; nuclei per well, duplicate mean 6099; inactive. For CCNO, the values are migration robust z-score 0.08; migration class with cell-count check migration z between -2 and 2; enough cells; nuclei per well, duplicate mean 5938; inactive. After knock-down of CDK14, the screen gave migration robust z-score -1.94; migration class with cell-count check migration z between -2 and 2; enough cells; nuclei per well, duplicate mean 5437; inactive. With knock-down of RSAD2, the screen gave migration robust z-score -0.64; migration class with cell-count check migration z between -2 and 2; enough cells; nuclei per well, duplicate mean 4026; inactive. A3GALT2 showed migration robust z-score 0.06; migration class with cell-count check migration z between -2 and 2; enough cells; nuclei per well, duplicate mean 5788; inactive.

Against PADI1, the entry reads migration robust z-score -0.13; migration class with cell-count check migration z between -2 and 2; enough cells; nuclei per well, duplicate mean 6300; inactive. After knock-down of RCE1, the record shows migration robust z-score -0.83; migration class with cell-count check migration z between -2 and 2; enough cells; nuclei per well, duplicate mean 5211; inactive. With knock-down of ZNF615, the screen gave migration robust z-score 1.5; migration class with cell-count check migration z between -2 and 2; enough cells; nuclei per well, duplicate mean 6674; inactive.

Records listed so far whose gene name starts with L or l:
LRRIQ1: migration robust z-score = 1.21; migration class with cell-count check = migration z between -2 and 2; enough cells; nuclei per well, duplicate mean = 5818; call = inactive
LRRC28: migration robust z-score = 1.18; migration class with cell-count check = migration z between -2 and 2; enough cells; nuclei per well, duplicate mean = 5247; call = inactive
